Data reported in PubChem BioAssay AID248 (DTP/NCI, 2004).
The list shows only some results of the screen, not a fair sample: it gathers tests that were run many times, whatever their T/C, doses with no T/C, and many T/C values between a quarter and a half above the control. Further doses and runs are listed elsewhere. T/C gives the treated animals as a percentage of the vehicle group. Some entries give survivors of the animals treated and no T/C: the source files T/C as zero there, which appears to mark a toxic dose or a test without result, not a measured value. Some doses without a T/C left all or most animals alive at the check, yet need not have been tolerated: the source hardly ever lists a survival T/C far under the control, and the zero likely stands for such cases as well. Survivors were counted at the toxicity check, usually on the fifth day, unless a day is given; later deaths do not show. Schedules are NCI's codes, read here as Q, the interval in days (D) or hours (H), X, the number of doses. Some entries were tested several times; the values are given in rising order. Some schedule codes hold Z or #, which are not explained here. For survival time, the PubChem record calls one and a half times the control and up active, and a quarter to a half above the control has no call in these data; cut-offs in other NCI protocols can differ. Marks such as (2×) stand for listed records that agree.

Test system: L1210 leukemia ip in BDF1 mice, survival T/C
Assay: NCI In Vivo Anticancer Drug Screen. Data for tumor model L1210 Leukemia (intraperitoneal) in B6D2F1 (BDF1) mice
Conditions: T/C endpoint: mean survival time, higher T/C = longer survival
[1] = dose: 200.0 mg/kg/injection, schedule: Q01DX009 (ip), vehicle: Klucel (hydroxypropylcellulose) (HPC)
[2] = dose: 400.0 mg/kg/injection, schedule: Q01DX009 (ip), vehicle: Klucel (hydroxypropylcellulose) (HPC)
[3] = dose: 300.0 mg/kg/injection, schedule: Q01DX001 (ip), vehicle: saline
[4] = dose: 200.0 mg/kg/injection, schedule: Q04DX002 (ip), vehicle: saline with Tween-80

## CS(=O)(=O)Nc1ccc(Nc2c3ccccc3nc3cc(N)ccc23)cc1
dose: 0.12 mg/kg/injection, schedule: Q01DX009 (ip), vehicle: saline
  T/C: 125 % of control
dose: 0.18 mg/kg/injection, schedule: Q01DX009 (ip), vehicle: saline
  T/C: 129 % of control
dose: 0.27 mg/kg/injection, schedule: Q01DX009 (ip), vehicle: saline
  T/C: 145 % of control
dose: 1.0 mg/kg/injection, schedule: Q01DX009 (sc), vehicle: saline
  T/C: 131 % of control
dose: 2.0 mg/kg/injection, schedule: Q01DX009 (sc), vehicle: saline
  T/C: 127 % of control
dose: 2.5 mg/kg/injection, schedule: Q01DX009 (ip), vehicle: saline
  survivor count: 6 of 6
dose: 8.0 mg/kg/injection, schedule: Q01DX009 (sc), vehicle: saline
  survivor count: 10 of 10
dose: 10.0 mg/kg/injection, schedule: Q01DX001 (ip), vehicle: saline
  T/C: 132 % of control
dose: 10.0 mg/kg/injection, schedule: Q01DX009 (ip), vehicle: saline
  survivor count: 5 of 6
dose: 20.0 mg/kg/injection, schedule: Q01DX009 (ip), vehicle: saline
  survivor count: 0 of 6
dose: 80.0 mg/kg/injection, schedule: Q01DX001 (ip), vehicle: saline
  survivor count: 0 of 6

## COc1ccc(NC(=O)Oc2ccc(C(C)=O)cc2)cc1
[1]
  survivor count: 5 of 6
[2]
  survivor count: 1 of 6

## CN(C=O)C(=S)[S-].CN(C=O)C(=S)[S-].CN(C=O)C(=S)[S-].O=C(Nc1ccc(S(=O)(=O)Nc2ccc(N=Nc3ccc4nc([S-])sc4c3)cc2)cc1)C(N1CC1)(N1CC1)N1CC1.[Pd]
dose: 50.0 mg/kg/injection, schedule: Q04DX003 (ip), vehicle: saline
  survivor count: 3 of 6
dose: 100.0 mg/kg/injection, schedule: Q04DX003 (ip), vehicle: saline
  survivor count: 0 of 6
dose: 200.0 mg/kg/injection, schedule: Q04DX003 (ip), vehicle: saline
  survivor count: 0 of 6
dose: 400.0 mg/kg/injection, schedule: Q04DX003 (ip), vehicle: saline
  survivor count: 0 of 6

## CC(=O)OCC(=O)[C@@]12OC(C)(C)O[C@@H]1C[C@H]1[C@@H]3CC(C=O)=C4C=C(OCCCl)CC[C@]4(C)[C@@]3(F)[C@@H](O)C[C@@]12C
[1]
  survivor count: 6 of 6
[2]
  survivor count: 3 of 6

## c1ccc2c3c([nH]c2c1)C1CC2CCCCC2CN1CC3 (stereo unspecified)
[3]
  survivor count: 0 of 6

## Cc1cc(=O)[nH]c(N/N=C/C(C)C)n1
dose: 400.0 mg/kg/injection, schedule: Q04DX003 (ip), vehicle: Klucel (hydroxypropylcellulose) (HPC)
  survivor count: 2 of 6

## c1ccc(NC2=NCCO2)cc1
[4]
  survivor count: 3 of 3

## Cc1cccc(Nc2cc(=O)[nH]c(=O)[nH]2)c1C
dose: 75.0 mg/kg/injection, schedule: Q01DX001 (ip), vehicle: saline with Tween-80
  survivor count: 6 of 6

## C(CC1CC1)OCOCCC1CC1
dose: 400.0 mg/kg/injection, schedule: Q01DX001 (ip), vehicle: saline with Tween-80
  survivor count: 1 of 3

## Nc1cc(C(=O)Nc2cccc(C3=NCCCN3)c2)ccc1C(=O)Nc1cccc(C2=NCCCN2)c1
dose: 1.36 mg/kg/injection, schedule: Q01DX Z (ip), vehicle: water
  survivor count: 0 of 6

## CCOC(=O)CNc1ccc(Cl)cc1
dose: 100.0 mg/kg/injection, schedule: Q04DX002 (ip), vehicle: Klucel (hydroxypropylcellulose) (HPC)
  T/C: 135 % of control
dose: 200.0 mg/kg/injection, schedule: Q04DX002 (ip), vehicle: Klucel (hydroxypropylcellulose) (HPC)
  survivor count: 2 of 3
dose: 400.0 mg/kg/injection, schedule: Q04DX002 (ip), vehicle: Klucel (hydroxypropylcellulose) (HPC)
  survivor count: 0 of 3

## Cc1nc2c(C(N)=O)nc(C)n2nc1C
[4]
  survivor count: 6 of 6
dose: 400.0 mg/kg/injection, schedule: Q04DX002 (ip), vehicle: saline with Tween-80
  survivor count: 6 of 6

## CCC(=O)c1ccc2c(c1)N(CCCN1CCN(CCO)CC1)c1ccccc1S2
dose: 12.5 mg/kg/injection, schedule: Q01DX009 (ip), vehicle: saline
  survivor count: 5 of 6
dose: 12.5 mg/kg/injection, schedule: Q03HX024 (ip), vehicle: saline
  survivor count: 4 of 6
dose: 16.0 mg/kg/injection, schedule: Q01DX009 (ip), vehicle: saline
  survivor count: 6 of 6
dose: 25.0 mg/kg/injection, schedule: Q01DX009 (ip), vehicle: saline
  survivor count: 5 of 6
dose: 25.0 mg/kg/injection, schedule: Q03HX024 (ip), vehicle: saline
  survivor count: 2 of 6
dose: 50.0 mg/kg/injection, schedule: Q01DX009 (ip), vehicle: saline
  survivor count: 4 of 6
dose: 64.0 mg/kg/injection, schedule: Q01DX009 (ip), vehicle: saline
  survivor count: 3 of 6
dose: 100.0 mg/kg/injection, schedule: Q01DX009 (ip), vehicle: saline
  survivor count: 0 of 6
dose: 150.0 mg/kg/injection, schedule: Q01DX001 (ip), vehicle: saline
  survivor count: 1 of 6
[3]
  survivor count: 0 of 6

## O=C1C=C(S(=O)(=O)c2ccccc2)C(=O)c2ccccc21
dose: 300.0 mg/kg/injection, schedule: Q01DX001 (ip), vehicle: other
  survivor count: 0 of 6

## CN(C)c1nc(N(C)C)nc(N(C)C)n1
dose: 22.0 mg/kg/injection, schedule: Q01DX009 (ip), vehicle: saline with Tween-80
  T/C: 97, 100, 104, 110 % of control
dose: 43.0 mg/kg/injection, schedule: Q01DX009 (ip), vehicle: saline with Tween-80
  T/C: 101 (2×), 107, 116 % of control
dose: 45.0 mg/kg/injection, schedule: Q03HX040 (ip), vehicle: saline
  survivor count: 6 of 6
dose: 60.0 mg/kg/injection, schedule: Q06HX020 (ip), vehicle: saline
  survivor count: 6 of 6
dose: 67.5 mg/kg/injection, schedule: Q03HX040 (ip), vehicle: saline
  survivor count: 2 of 6
dose: 86.0 mg/kg/injection, schedule: Q01DX009 (ip), vehicle: saline with Tween-80
  T/C: 95, 101, 121, 125 % of control
dose: 90.0 mg/kg/injection, schedule: Q06HX020 (ip), vehicle: saline
  survivor count: 6 of 6
dose: 135.0 mg/kg/injection, schedule: Q03HX040 (ip), vehicle: saline
  survivor count: 0 of 6
dose: 135.0 mg/kg/injection, schedule: Q06HX020 (ip), vehicle: saline
  survivor count: 1 of 6
dose: 160.0 mg/kg/injection, schedule: Q01DX005 (ip), vehicle: acetone
  survivor count: 4 of 7 and 7 of 7
dose: 172.0 mg/kg/injection, schedule: Q01DX009 (ip), vehicle: saline with Tween-80
  T/C: 104, 111, 116, 125 % of control
dose: 200.0 mg/kg/injection, schedule: Q12HX010 (ip), vehicle: saline
  survivor count: 6 of 6
dose: 270.0 mg/kg/injection, schedule: Q06HX020 (ip), vehicle: saline
  survivor count: 0 of 6
dose: 320.0 mg/kg/injection, schedule: Q01DX009 (ip), vehicle: Klucel (hydroxypropylcellulose) (HPC)
  survivor count: 5 of 6
dose: 400.0 mg/kg/injection, schedule: Q01DX009 (ip), vehicle: saline with Tween-80
  survivor count: 6 of 10
dose: 400.0 mg/kg/injection, schedule: Q12HX010 (ip), vehicle: saline
  survivor count: 0 of 6
dose: 800.0 mg/kg/injection, schedule: Q12HX010 (ip), vehicle: saline
  survivor count: 0 of 6
dose: 1000.0 mg/kg/injection, schedule: Q01DX001 (ip), vehicle: other
  survivor count: 2 of 6

## CC1=C(O)C(=O)C(C2=C(O)C(=O)C(C)=C(O)C2=O)=C(O)C1=O
dose: 20.0 mg/kg/injection, schedule: Q01DX001 (ip), vehicle: carboxymethylcellulose (CMC)
  survivor count: 0 of 4
dose: 40.0 mg/kg/injection, schedule: Q01DX001 (ip), vehicle: carboxymethylcellulose (CMC)
  survivor count: 0 of 4
dose: 80.0 mg/kg/injection, schedule: Q01DX001 (ip), vehicle: carboxymethylcellulose (CMC)
  survivor count: 0 of 4
dose: 100.0 mg/kg/injection, schedule: Q01DX001 (ip), vehicle: carboxymethylcellulose (CMC)
  survivor count: 0 of 4
dose: 200.0 mg/kg/injection, schedule: Q01DX001 (ip), vehicle: carboxymethylcellulose (CMC)
  survivor count: 0 of 4
dose: 400.0 mg/kg/injection, schedule: Q01DX001 (ip), vehicle: carboxymethylcellulose (CMC)
  survivor count: 0 of 4
dose: 2000.0 micrograms/kg/injection, schedule: Q01DX Z (ip), vehicle: carboxymethylcellulose (CMC)
  survivor count: 1 of 6
